Assay results from publication PMC9643420.

Protein sequences, listed by entry. Tags and fused reporters are not part of them.
UniProt Q00839: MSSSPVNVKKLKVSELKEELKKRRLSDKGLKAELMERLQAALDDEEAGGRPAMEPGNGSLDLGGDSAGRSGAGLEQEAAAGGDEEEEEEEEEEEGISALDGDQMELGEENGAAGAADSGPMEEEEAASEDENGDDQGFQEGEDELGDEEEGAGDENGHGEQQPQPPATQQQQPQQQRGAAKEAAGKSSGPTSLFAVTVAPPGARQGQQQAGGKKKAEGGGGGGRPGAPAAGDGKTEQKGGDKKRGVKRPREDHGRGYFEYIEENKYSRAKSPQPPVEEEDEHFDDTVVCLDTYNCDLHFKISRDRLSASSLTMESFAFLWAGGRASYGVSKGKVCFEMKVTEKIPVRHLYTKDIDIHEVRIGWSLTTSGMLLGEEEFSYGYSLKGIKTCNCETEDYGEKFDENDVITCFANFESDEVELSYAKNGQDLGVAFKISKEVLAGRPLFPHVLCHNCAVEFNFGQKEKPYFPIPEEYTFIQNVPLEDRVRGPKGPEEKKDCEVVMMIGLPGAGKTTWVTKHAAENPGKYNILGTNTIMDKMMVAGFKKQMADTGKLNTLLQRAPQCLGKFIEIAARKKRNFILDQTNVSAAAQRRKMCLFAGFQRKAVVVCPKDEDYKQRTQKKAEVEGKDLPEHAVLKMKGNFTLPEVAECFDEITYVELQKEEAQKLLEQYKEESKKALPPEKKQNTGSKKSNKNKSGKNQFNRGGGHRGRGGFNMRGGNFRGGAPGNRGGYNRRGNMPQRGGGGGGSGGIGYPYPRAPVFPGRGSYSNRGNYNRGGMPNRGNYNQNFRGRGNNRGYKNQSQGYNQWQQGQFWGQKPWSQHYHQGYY
UniProt P17844: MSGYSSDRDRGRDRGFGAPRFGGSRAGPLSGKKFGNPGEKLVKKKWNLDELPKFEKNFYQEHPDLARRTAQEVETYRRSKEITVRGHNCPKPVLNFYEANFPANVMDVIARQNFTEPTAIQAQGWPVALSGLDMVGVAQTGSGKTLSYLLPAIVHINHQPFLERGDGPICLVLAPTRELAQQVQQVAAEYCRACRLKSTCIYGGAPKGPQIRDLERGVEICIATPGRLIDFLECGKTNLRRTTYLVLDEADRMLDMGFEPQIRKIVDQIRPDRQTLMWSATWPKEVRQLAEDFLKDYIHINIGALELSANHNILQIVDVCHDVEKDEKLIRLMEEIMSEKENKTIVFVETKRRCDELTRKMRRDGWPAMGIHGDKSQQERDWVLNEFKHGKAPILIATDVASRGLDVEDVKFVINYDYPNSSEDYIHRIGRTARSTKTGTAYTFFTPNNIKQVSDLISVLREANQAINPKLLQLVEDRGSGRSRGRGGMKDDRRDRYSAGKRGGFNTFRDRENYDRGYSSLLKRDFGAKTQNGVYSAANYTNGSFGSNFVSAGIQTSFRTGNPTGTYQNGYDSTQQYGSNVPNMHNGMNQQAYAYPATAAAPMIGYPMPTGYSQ

Target: 3XFlag-tagged overexpression HNRNPU protein (heterogeneous nuclear ribonucleoprotein U) (UniProt Q00839)
Assay: affinity purification with mass spectrometry; HNRNPU-Flag overexpressed in HEK293T, lysed in NP40 buffer (0.5% NP40, 50 mM Tris-HCl pH 8, 150 mM NaCl, 10% glycerol, 2 mM MgCl2, 1 mM EDTA), anti-Flag antibody overnight at 4 °C, protein G magnetic beads, whole SDS-PAGE lane sequenced by mass spectrometry

For “endogenous DDX5 (DEAD box helicase 5) (from UniProt P17844 1-614)”, the binding was “binds”.

Results are given in words; binding and its absence hold for the method and conditions named. Binding seen in cells or lysates may run through a third protein. These calls come from enrichment with a bait or labelling near it, and not all partners need be listed.
